The source of these data is paper PMC11021452, “Exposing the molecular heterogeneity of glycosylated biotherapeutics” (Nature Communications, 2024).

These are yes or no findings as the source states them, for the method shown. Some entries that bind do so weakly or less than the wild type. Sequences can lack the tags named with a protein.

The target in this experiment is MHCII beta chain construct CLIP-linker-TEV-DPB1*05:01 extracellular domain-Jun zipper-SpyTag003-His6. The experiment is described as follows: native MS; DIA-PTCR with static nanospray on the co-expressed, co-purified complex; 10 µM, exchanged into 200 mM ammonium acetate; both purified.

B1: MHCII alpha chain construct DPA1*02:02 extracellular domain-Fos zipper-Avi-His6 (full-length alpha chain) (domain or fragment)
MHC II alpha: GAIKADHVSTYAMFVQTHRPTGEFMFEFDEDEQFYVDLDKKETVWHLEEFGRAFSFEAQGGLANIAILNNNLNTLIQRSNHTQAANDPPEVTVFPKEPVELGQPNTLICHIDRFFPPVLNVTWLCNGEPVTEGVAESLFLPRTDYSFHKFHYLTFVPSAEDVYDCRVEHWGLDQPLLKHWEAQEPIQMPETTESSADLVPRGSLTDTLQAETDQLEDEKSALQTEIANLLKEKEKLEFILAAGGSGGSGSGATNFSLLKQAGDVEENPG
modifications: glycosylated; a non-native glycosylation site on the P2A peptide
As for B1, the binding result is reported as “binds”.
